According to the supplement of paper PMC10849652:
Some of the results follow.

Protein sequences, listed by entry. Tags and fused reporters are not part of them. Lines headed by an entry give the natural chain unless they say otherwise; changes in a name come on top.
UniProt Q9Y6B6: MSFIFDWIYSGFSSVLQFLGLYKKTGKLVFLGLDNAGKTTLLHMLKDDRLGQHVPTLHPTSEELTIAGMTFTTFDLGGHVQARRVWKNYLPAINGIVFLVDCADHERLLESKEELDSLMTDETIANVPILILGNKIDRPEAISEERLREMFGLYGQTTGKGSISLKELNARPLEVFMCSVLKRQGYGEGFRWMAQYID
UniProt Q9NTN9: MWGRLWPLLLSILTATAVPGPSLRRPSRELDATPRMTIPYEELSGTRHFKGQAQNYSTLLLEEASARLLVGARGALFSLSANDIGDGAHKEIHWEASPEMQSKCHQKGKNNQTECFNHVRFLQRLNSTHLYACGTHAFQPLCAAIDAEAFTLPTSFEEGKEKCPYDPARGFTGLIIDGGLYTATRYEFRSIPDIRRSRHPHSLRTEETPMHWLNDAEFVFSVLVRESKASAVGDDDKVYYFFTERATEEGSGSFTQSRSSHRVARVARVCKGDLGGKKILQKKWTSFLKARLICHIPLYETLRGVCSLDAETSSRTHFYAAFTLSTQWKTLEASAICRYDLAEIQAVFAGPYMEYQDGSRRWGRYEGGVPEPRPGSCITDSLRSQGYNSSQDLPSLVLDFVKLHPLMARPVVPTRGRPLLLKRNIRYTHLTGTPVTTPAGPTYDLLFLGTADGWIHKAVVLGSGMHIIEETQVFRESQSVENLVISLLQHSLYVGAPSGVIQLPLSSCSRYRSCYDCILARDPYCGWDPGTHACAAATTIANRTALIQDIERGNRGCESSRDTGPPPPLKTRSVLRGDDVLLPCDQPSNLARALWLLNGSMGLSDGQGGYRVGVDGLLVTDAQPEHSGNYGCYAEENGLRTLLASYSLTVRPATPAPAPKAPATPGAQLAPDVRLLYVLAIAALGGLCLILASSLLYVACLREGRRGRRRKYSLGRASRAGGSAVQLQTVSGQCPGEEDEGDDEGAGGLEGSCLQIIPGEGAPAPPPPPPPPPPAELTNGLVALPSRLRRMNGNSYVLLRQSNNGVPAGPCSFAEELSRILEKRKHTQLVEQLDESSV
UniProt Q9UPW6: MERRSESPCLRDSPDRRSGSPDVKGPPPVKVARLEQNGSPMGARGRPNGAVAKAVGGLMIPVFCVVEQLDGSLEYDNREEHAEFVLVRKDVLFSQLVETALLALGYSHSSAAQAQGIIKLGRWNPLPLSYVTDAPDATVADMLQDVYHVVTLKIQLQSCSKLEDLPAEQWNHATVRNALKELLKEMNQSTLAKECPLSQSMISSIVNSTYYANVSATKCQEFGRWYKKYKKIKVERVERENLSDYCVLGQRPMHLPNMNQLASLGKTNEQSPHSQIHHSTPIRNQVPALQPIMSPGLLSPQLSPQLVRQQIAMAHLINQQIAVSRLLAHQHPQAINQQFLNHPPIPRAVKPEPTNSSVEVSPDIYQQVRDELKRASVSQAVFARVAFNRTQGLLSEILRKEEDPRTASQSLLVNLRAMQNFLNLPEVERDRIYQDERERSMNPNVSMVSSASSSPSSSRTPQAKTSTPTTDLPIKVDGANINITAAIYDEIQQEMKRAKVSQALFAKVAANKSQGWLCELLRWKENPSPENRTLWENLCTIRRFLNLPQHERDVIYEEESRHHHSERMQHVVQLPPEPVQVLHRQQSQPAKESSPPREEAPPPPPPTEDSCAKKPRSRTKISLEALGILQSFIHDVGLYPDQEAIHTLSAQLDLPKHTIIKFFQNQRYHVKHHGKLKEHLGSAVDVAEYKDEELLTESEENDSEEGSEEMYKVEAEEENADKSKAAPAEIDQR
UniProt Q9BQE4, whole entry, looked up: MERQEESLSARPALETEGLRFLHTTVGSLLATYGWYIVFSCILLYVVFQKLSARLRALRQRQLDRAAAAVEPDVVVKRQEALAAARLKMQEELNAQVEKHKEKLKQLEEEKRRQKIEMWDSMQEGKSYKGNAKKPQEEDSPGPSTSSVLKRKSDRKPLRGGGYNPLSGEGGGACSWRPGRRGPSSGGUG
UniProt Q9Y467: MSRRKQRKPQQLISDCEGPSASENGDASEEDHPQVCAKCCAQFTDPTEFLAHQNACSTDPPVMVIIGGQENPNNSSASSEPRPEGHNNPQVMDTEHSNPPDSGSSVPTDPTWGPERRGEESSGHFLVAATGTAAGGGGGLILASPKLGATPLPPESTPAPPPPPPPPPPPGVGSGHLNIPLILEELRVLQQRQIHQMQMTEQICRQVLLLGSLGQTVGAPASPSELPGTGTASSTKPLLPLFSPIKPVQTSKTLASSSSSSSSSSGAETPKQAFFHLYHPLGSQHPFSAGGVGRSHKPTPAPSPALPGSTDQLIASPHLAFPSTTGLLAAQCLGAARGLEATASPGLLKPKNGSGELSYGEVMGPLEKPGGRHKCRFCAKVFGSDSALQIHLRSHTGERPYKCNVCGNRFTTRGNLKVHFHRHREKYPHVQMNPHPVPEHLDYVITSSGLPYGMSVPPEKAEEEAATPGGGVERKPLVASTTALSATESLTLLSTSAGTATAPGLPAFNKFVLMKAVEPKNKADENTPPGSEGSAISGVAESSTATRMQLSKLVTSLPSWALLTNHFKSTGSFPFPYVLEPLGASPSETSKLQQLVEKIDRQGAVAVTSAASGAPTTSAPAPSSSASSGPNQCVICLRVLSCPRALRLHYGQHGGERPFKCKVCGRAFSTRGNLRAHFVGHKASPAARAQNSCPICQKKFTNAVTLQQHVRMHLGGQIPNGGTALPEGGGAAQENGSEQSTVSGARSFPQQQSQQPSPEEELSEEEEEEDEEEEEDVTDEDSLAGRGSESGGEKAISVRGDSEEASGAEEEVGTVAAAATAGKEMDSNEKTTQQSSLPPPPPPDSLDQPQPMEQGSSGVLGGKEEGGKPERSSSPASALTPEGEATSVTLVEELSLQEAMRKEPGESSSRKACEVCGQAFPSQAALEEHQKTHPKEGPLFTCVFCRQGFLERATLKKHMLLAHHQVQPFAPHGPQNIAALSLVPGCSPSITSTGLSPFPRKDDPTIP
UniProt Q9UQR0: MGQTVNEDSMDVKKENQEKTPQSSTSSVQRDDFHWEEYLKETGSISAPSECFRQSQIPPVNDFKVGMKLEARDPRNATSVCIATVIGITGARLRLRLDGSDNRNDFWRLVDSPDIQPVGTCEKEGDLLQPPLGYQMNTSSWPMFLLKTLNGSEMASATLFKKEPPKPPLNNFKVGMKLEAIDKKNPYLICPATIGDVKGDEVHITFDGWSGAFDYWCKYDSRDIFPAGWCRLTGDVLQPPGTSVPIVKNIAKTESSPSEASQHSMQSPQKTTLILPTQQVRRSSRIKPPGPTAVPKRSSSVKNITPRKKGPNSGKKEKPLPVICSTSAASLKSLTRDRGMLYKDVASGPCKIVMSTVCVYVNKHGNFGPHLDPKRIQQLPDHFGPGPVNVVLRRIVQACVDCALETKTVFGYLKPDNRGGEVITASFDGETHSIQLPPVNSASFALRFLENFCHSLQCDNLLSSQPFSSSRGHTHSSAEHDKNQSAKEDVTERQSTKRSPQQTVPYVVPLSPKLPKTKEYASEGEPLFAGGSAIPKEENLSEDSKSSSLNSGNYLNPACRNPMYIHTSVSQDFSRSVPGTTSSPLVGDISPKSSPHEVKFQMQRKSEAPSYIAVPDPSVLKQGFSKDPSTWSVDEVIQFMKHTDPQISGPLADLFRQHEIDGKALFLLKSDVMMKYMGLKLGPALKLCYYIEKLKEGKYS
UniProt Q8IZQ5, whole entry, looked up: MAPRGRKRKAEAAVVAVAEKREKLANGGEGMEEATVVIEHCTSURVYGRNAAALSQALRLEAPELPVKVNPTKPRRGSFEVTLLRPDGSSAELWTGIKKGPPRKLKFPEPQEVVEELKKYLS
UniProt Q15019: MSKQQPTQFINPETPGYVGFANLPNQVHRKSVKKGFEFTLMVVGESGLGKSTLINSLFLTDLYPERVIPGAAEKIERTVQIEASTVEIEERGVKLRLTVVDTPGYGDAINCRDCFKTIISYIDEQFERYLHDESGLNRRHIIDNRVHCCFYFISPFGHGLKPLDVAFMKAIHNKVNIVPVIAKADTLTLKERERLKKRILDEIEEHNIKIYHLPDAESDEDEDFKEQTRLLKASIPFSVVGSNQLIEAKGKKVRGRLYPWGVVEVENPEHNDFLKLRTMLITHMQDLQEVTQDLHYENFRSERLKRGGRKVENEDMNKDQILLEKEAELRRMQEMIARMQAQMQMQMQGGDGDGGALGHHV
UniProt O95968: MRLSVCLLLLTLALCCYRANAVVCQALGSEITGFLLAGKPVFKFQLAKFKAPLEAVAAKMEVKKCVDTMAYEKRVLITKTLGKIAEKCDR

Columns and labels:
Experiment in all cases: log2 fold change, soluble protein after heating vs DMSO (PISA); higher = thermal stabilisation; K562 lysate, 10 uM; active = over 0.2 and 3.5 SD of the protein, either way, in both replicates (recomputed)
erlotinib = compound: C#Cc1cccc(Nc2ncnc3cc(OCCOC)c(OCCOC)cc23)c1 [erlotinib]
In short: (§1)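 Pellets of K562 cells were dounce-homogenised in PBS pH 7.4 with 1 mM MgCl2, and the crude extract was held at 1 mg/mL protein for a 30 min treatment with 10 μM compound. Aliquots were heated for 3 min over 48°C-58°C and pooled before NP-40 was added to 0.5% at 4°C. The supernatant from 21,000xg for 90 min was quantified by TMTpro 16plex LC-MS/MS with channel sums equalised. Values are reported from duplicates as log-two fold change in thermal stability relative to solvent controls.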

[1] = compound: C/C(=N\NC(=O)C1=CC(=CC=C1)S(=O)(=O)N2CCOCC2)/C3=C(C=CC(=C3)Cl)O
In short: as §1

[2] = compound: C1=CC(=CC=C1C2=NC3=C(N2)C=C(C=C3)C(=O)N)OC4=CC=C(C=C4)Cl
In short: as §1

[3] = compound: C1=CC2=C(C=CC(=C2)/C=C\3/C(=O)NC(=NCC4=CC=CS4)S3)N=C1
In short: as §1

[4] = compound: C1=CC2=NC=CN=C2C=C1/C=C/3\C(=O)NC(=O)S3
In short: as §1

[5] = compound: C1=CC=C(C=C1)C2=NC(=C(N2)C3=CC=NC=C3)C4=CC(=C(C=C4)Cl)O
In short: as §1

[6] = compound: C1=CC=C2C(=C1)C3=NNC4=CC=CC(=C43)C2=O
In short: as §1

[7] = compound: C1CCN(C1)C(=O)NC2=CC=CC(=C2)NC3=NC=C(C(=N3)NCCC4=CN=CN4)Br
In short: as §1

[8] = compound: C1CN(CCC1(CC2=CC=C(C=C2)Cl)N)C3=NC=NC4=C3C=CN4
In short: as §1

IRAK-1-4 Inhibitor I = compound: C1COCCN1CCN2C3=CC=CC=C3N=C2NC(=O)C4=CC(=CC=C4)[N+](=O)[O-] [IRAK-1-4 Inhibitor I]
In short: as §1

Measured: log2 fold change

SAR1B (UniProt Q9Y6B6)
inactive: erlotinib -0.143 | [1] 0.011 | [2] 0.042 | [3] -0.046 | [4] -0.065 | [5] -0.045 | [6] 0.029 | [7] -0.126 | [8] 0.025 | IRAK-1-4 Inhibitor I 0.041

SEMA4G isoform 2 (UniProt Q9NTN9)
inactive: erlotinib 0.005 | [1] -0.137 | [2] -0.063 | [3] 0.032 | [6] -0.011 | [7] 0.034 | [8] -0.112

SATB2 (UniProt Q9UPW6)
inactive: erlotinib -0.019 | [1] -0.044 | [2] 0.022 | [3] -0.01 | [5] -0.006 | [6] 0.031 | [7] -0.033 | [8] 0.009 | IRAK-1-4 Inhibitor I 0.027

SELENOS (UniProt Q9BQE4)
inactive: erlotinib 0 | [1] -0.01 | [2] 0 | [3] -0.046 | [4] -0.048 | [5] -0.016 | [6] 0.011 | [7] 0.005 | [8] 0.031 | IRAK-1-4 Inhibitor I 0.017

SALL2 (UniProt Q9Y467)
inactive: erlotinib 0.143 | [2] 0.017 | [4] -0.053 | [5] -0.004 | [7] 0.056 | [8] -0.005 | IRAK-1-4 Inhibitor I -0.027

Reprinted from above (2 entries):
SAR1B (UniProt Q9Y6B6)
inactive: erlotinib -0.143 | [1] 0.011 | [2] 0.042 | [3] -0.046 | [4] -0.065 | [5] -0.045 | [6] 0.029 | [7] -0.126 | [8] 0.025 | IRAK-1-4 Inhibitor I 0.041

SEMA4G isoform 2 (UniProt Q9NTN9)
inactive: erlotinib 0.005 | [1] -0.137 | [2] -0.063 | [3] 0.032 | [6] -0.011 | [7] 0.034 | [8] -0.112

Going on with the list:

SCML2 (UniProt Q9UQR0)
inactive: erlotinib 0.021 | [1] 0.038 | [2] 0.019 | [3] 0.068 | [4] -0.046 | [5] 0 | [6] -0.028 | [7] -0.003 | [8] 0.043 | IRAK-1-4 Inhibitor I -0.01

SELENOH (UniProt Q8IZQ5)
inactive: erlotinib 0.015 | [1] -0.019 | [2] 0.018 | [3] 0.005 | [4] -0.001 | [5] 0.042 | [6] 0.01 | [7] 0.006 | [8] 0.024 | IRAK-1-4 Inhibitor I 0.044

SEPTIN2 isoform 2 (UniProt Q15019)
inactive: erlotinib 0.022 | [1] -0.043 | [2] 0.018 | [3] -0.001 | [4] 0.003 | [5] 0.008 | [6] -0.003 | [7] -0.001 | [8] 0.004 | IRAK-1-4 Inhibitor I 0.013

SCGB1D1 (UniProt O95968)
inactive: erlotinib -0.084 | [2] -0.171
